Patent US20070134261A1, “Effectors of innate immunity” (priority 2001, published 2007)
Values joined by “and” are separate entries in the source; they are usually repeats but may differ in a detail not shown here. Identical values can stand only once. Part of at least one peptide drawing is inferred or uncertain, most often the ends. No end group written: not given here.

Tested on: human A549 epithelial cells
Test: Resgen Human cDNA arrays (PRHU03-S3) of A549 cells treated with peptide (Tables 21-26)
Conditions: 50 μg/ml, 4 h

Substance: RLARIVVIRVAR-NH2 [SEQ ID NO: 3]
- Ratio Peptide:Unstimulated, disintegrin-like and metalloprotease with thrombospondin type 1 motif, 5 (AI375048): 0.42
- Ratio Peptide:Unstimulated, killer cell lectin-like receptor subfamily G, member 1 (AI433079): 1.7
- Ratio Peptide:Unstimulated, apoptosis antagonizing transcription factor (AI439571): 2.50
- Ratio Peptide:Unstimulated, T-cell receptor interacting molecule (AI453185): 1.24
- Ratio Peptide:Unstimulated, TGFB inducible early growth response 2 (AI473938, listed as ID 3): 2.1 and 2.08
- Ratio Peptide:Unstimulated, MAP kinase kinase kinase 1 (AI538525): 0.42
- Ratio Peptide:Unstimulated, protocadherin 12 (AI652584): 11.5
- Ratio Peptide:Unstimulated, protein tyrosine phosphatase, non-receptor type 18 (AI668897): 0.9
- Ratio Peptide:Unstimulated, Fc fragment of IgE, high affinity I, receptor for; alpha polypeptide (AI676097): 0.00
- Ratio Peptide:Unstimulated, G protein-coupled receptor 4 (AI719098): 3.0
- Ratio Peptide:Unstimulated, peroxisome proliferative activated receptor, alpha (AI739498): 0.85
- Ratio Peptide:Unstimulated, cadherin 12, type 2 (N-cadherin 2) (AI740827): 26
- Ratio Peptide:Unstimulated, complement component C1q receptor (AI761788): 0.58
- Ratio Peptide:Unstimulated, small inducible cytokine subfamily B (Cys-X-Cys), member 6 (granulocyte chemotactic protein 2) (AI889554): 0.06
- Ratio Peptide:Unstimulated, protein tyrosine phosphatase, receptor type, H (AI924306): 0.43
- Ratio Peptide:Unstimulated, tyrosine kinase, non-receptor, 1 (AI936324): 8.5
- Ratio Peptide:Unstimulated, MAP kinase 12 (AI936909): 1.7
- Ratio Peptide:Unstimulated, G protein-coupled receptor 17 (AI953187): 0.56
- Ratio Peptide:Unstimulated, apoptosis inhibitor 5 (AI972925): 1.6
- Ratio Peptide:Unstimulated, leukotriene b4 receptor (chemokine receptor-like 1) (AI982606): 1.38
- Ratio Peptide:Unstimulated, IL-17 R (AW029299): 2.0
- Ratio Peptide:Unstimulated, MAP kinase kinase kinase 6 (AW084649): 0.38
- Ratio Peptide:Unstimulated (C-type lectin-like receptor-2 (H70491)): 7.92
- Ratio Peptide:Unstimulated (CCR6 (N57964)): 7.75
- Ratio Peptide:Unstimulated (CD31 (PECAM) (R22412)): 3.13
- Ratio Peptide:Unstimulated, selectin L (lymphocyte adhesion molecule 1) (H00662): 0.23
- Ratio Peptide:Unstimulated, MAP kinase kinase kinase 10 (H01340): 0.27
- Ratio Peptide:Unstimulated, protein tyrosine phosphatase, non-receptor type 21 (H03504): 0.43
- Ratio Peptide:Unstimulated, MAP kinase kinase 6 (H07920, listed as ID 3): 9.6 and 9.61
- Ratio Peptide:Unstimulated, disintegrin and metalloproteinase domain 23 (H11006): 2.3
- Ratio Peptide:Unstimulated, vascular cell adhesion molecule 1 (H16591): 0.72
- Ratio Peptide:Unstimulated, Fc fragment of IgG, low affinity IIIb, receptor for (CD16) (H20822): 0.26
- Ratio Peptide:Unstimulated, MAP kinase 7 (H39192, listed as ID 3): 11.5 and 11.45
- Ratio Peptide:Unstimulated, leukocyte immunoglobulin-like receptor, subfamily B (H54023): 0.60
- Ratio Peptide:Unstimulated, disintegrin and metalloproteinase domain 9 (H59231): 2.3
- Ratio Peptide:Unstimulated, TGF beta receptor III (H62473): 0.24
- Ratio Peptide:Unstimulated, regulator of G-protein signaling 13 (H70047): 0.45
- Ratio Peptide:Unstimulated, C-type lectin-like receptor-2 (H70491): 8.0
- Ratio Peptide:Unstimulated, vasoactive intestinal peptide receptor 1 (H73241): 0.31
- Ratio Peptide:Unstimulated, protein tyrosine phosphatase, receptor type, C (H74265): 0.64
- Ratio Peptide:Unstimulated, protein tyrosine phosphatase, receptor type, A (H82419): 2.4
- Ratio Peptide:Unstimulated, G protein-coupled receptor 75 (H84878): 3.1
- Ratio Peptide:Unstimulated, cadherin 1, type 1, E-cadherin epithelial (H97778): 2.2
- Ratio Peptide:Unstimulated, TNF R superfamily, member 5 (CD40LR) (H98636): 0.02
- Ratio Peptide:Unstimulated (IL-11 Rα (AA454657)): 0.98
- Ratio Peptide:Unstimulated (IL-17 R (AW029299)): 1.97
- Ratio Peptide:Unstimulated (MAP kinase 9 (AA157286)): 0.39
- Ratio Peptide:Unstimulated, TLR 7 (N30597): 0.11
- Ratio Peptide:Unstimulated, CD36 (N39161): 5.5
- Ratio Peptide:Unstimulated, TLR 5 (N41021): 0.39
- Ratio Peptide:Unstimulated, IL-2 receptor, gamma (severe combined immunodeficiency) (N54821): 0.24
- Ratio Peptide:Unstimulated, adenosine A2a R (N57553): 1.8
- Ratio Peptide:Unstimulated, CCR6 (N57964): 7.8
- Ratio Peptide:Unstimulated, G protein-coupled receptor 55 (N58443): 15
- Ratio Peptide:Unstimulated, G protein-coupled receptor 85 (N62306): 5.4
- Ratio Peptide:Unstimulated, leukocyte immunoglobulin-like receptor, subfamily A (N63398): 0.05
- Ratio Peptide:Unstimulated, receptor tyrosine kinase-like orphan receptor 2 (N94921): 5.0
- Ratio Peptide:Unstimulated, CD31 (R22412): 3.1
- Ratio Peptide:Unstimulated, growth factor receptor-bound protein 14 (R24266): 3.0
- Ratio Peptide:Unstimulated, IK cytokine, down-regulator of HLA II (R39227, listed as ID 3): 2.0 and 2.01
- Ratio Peptide:Unstimulated, regulator of G-protein signaling 6 (R39932): 3.7
- Ratio Peptide:Unstimulated, cell adhesion molecule (R40400): 3.9
- Ratio Peptide:Unstimulated, cadherin 13, H-cadherin (heart) (R41787): 0.40
- Ratio Peptide:Unstimulated, diphtheria toxin receptor (heparin-binding epidermal growth factor-like growth factor) (R45640): 0.85
- Ratio Peptide:Unstimulated, protein tyrosine phosphatase, receptor type, T (R52794): 2.8
- Ratio Peptide:Unstimulated, PDGF R beta polypeptide (R56211): 1.0
- Ratio Peptide:Unstimulated, Fc fragment of IgG, low affinity IIb, receptor for (CD32) (R68106): 0.06
- Ratio Peptide:Unstimulated, MAP kinase kinase kinase 11 (R80779): 0.41
- Ratio Peptide:Unstimulated, protocadherin gamma subfamily C, 3 (R89615): 2.5
- Ratio Peptide:Unstimulated, G protein-coupled receptor (R91916): 0.16
- Ratio Peptide:Unstimulated, TNF receptor-associated factor 2 (T55353): 0.45
- Ratio Peptide:Unstimulated, TLR 2 (T57791): 0.31
- Ratio Peptide:Unstimulated, BMP R type IA (W15390): 2.8
- Ratio Peptide:Unstimulated, caspase 6, apoptosis-related cysteine protease (W45688): 2.6
- Ratio Peptide:Unstimulated, MAP kinase kinase kinase 8 (W56266): 1.82
- Ratio Peptide:Unstimulated, integrin, beta 8 (W56754): 1.14
- Ratio Peptide:Unstimulated, MAP kinase kinase kinase 14 (W61116): 0.66
- Ratio Peptide:Unstimulated, integrin, beta 1 (W67174): 2.1
- Ratio Peptide:Unstimulated, MAP kinase-activated protein kinase 3 (W68281, listed as ID 3): 2.7 and 2.68
- Ratio Peptide:Unstimulated, MAP kinase kinase 5 (W69649): 5.2
- Ratio Peptide:Unstimulated, TNF receptor superfamily, member 12 (W71984): 0.24
- Ratio Peptide:Unstimulated, killer cell lectin-like receptor subfamily C, member 3 (W93370): 1.0
- Ratio Peptide:Unstimulated (integrin, alpha 2 (CD49B) (AA463257)): 2.44
- Ratio Peptide:Unstimulated (integrin, alpha 3 (antigen CD49C) (AA424695)): 2.51
- Ratio Peptide:Unstimulated (integrin, alpha E (AA425451)): 120.12
- Ratio Peptide:Unstimulated (integrin, beta 4 (AA485668)): 2.17
